Measurements reported in PubChem BioAssay AID652243 (Drosophila RNAi Screening Center, 2013)
Test: 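Fly genes required for human androgen receptor driven transcription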 (primary screen). System: Drosophila S2R+ cells. Reagent: long dsRNA against Drosophila genes. Time to read-out: 72 h (48 h, then 24 h hormone). Conditions: synthetic androgen R1881 at 10 nM for 24 h. Measured: 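Firefly light from an androgen-responsive reporter and Renilla control light per well, raw and unnormalised, for each of two replicates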. Reading the numbers: firefly reporter light: higher = more light from androgen-responsive reporter; Renilla control light: higher = more constitutive control signal (cell number, transfection). Hit rule: 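Hit when the log firefly-to-Renilla ratio dropped or increased by a fixed fold versus the mean of GFP or LacZ controls across duplicate plates; lowering cut given as 1.5 and as 3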. Calls: active = hit: reporter lowered or raised; inactive = no hit.
The screen tested about 24,000 reagents; this is a random part of those that have a named target and a result. In the full data, 246 (1%) are marked active. 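Plates not normalised; calls are printed but the firefly/Renilla ratio behind them is not deposited; fold cut for lowering reported inconsistently.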 Raw values vary from plate to plate and are shown uncorrected. A plus sign joins genes that one reagent is predicted to hit. The record does not give: the amount of reagent.

no.	target gene	dsRNA	firefly reporter light, replicate 1	firefly reporter light, replicate 2	Renilla control light, replicate 1	Renilla control light, replicate 2	Call
1	CG17752	DRSC15262	2.86e5	3.44e5	3.20e6	3.81e6	inactive
2	CG17752	DRSC26265	2.97e5	2.75e5	6.36e5	5.55e5	inactive
3	vis (vismay)	DRSC26134	2.81e5	3.05e5	7.27e5	7.54e5	inactive
4	Dlip3 (Dorsal interacting protein 3)	DRSC07401	44425	53413	1.20e6	1.20e6	inactive
5	Dlip3 (Dorsal interacting protein 3)	DRSC29615	4.25e5	4.07e5	8.32e5	8.32e5	inactive
6	CG12310	DRSC09878	1.97e5	1.20e5	2.50e6	1.36e6	inactive
7	CG12310	DRSC25358	9.68e5	1.17e6	1.31e6	1.21e6	inactive
8	CG31253 + CG31131	DRSC13839	1.52e5	2.06e5	2.51e5	3.10e5	inactive
9	Cbp20 (cap binding protein 20)	DRSC16601	51678	1.27e5	9.95e5	9.99e5	inactive
10	Spg7 (Paraplegin)	DRSC18469	3.39e5	2.26e5	4.49e6	3.57e6	inactive

2 of these entries, reformatted.
Cbp20 (cap binding protein 20) [DRSC16601] — firefly reporter light, replicate 1: 51678; firefly reporter light, replicate 2: 1.27e5; Renilla control light, replicate 1: 9.95e5; Renilla control light, replicate 2: 9.99e5; Call: inactive
Spg7 (Paraplegin) [DRSC18469] — firefly reporter light, replicate 1: 3.39e5; firefly reporter light, replicate 2: 2.26e5; Renilla control light, replicate 1: 4.49e6; Renilla control light, replicate 2: 3.57e6; Call: inactive

The listing continues:
no.	target gene	dsRNA	firefly reporter light, replicate 1	firefly reporter light, replicate 2	Renilla control light, replicate 1	Renilla control light, replicate 2	Call
11	FMRFa (FMRFamide)	DRSC07428	2.59e5	1.77e5	1.45e6	1.27e6	inactive
12	Prosalpha6T (Proteasome alpha6 subunit, Testis-specific)	DRSC02873	2.07e5	1.66e5	1.20e6	1.72e6	inactive
13	Cpr30B (Cuticular protein 30B)	DRSC02728	3.33e5	3.51e5	2.27e6	1.92e6	inactive
14	Cpr30B (Cuticular protein 30B)	DRSC25204	6.99e5	8.47e5	1.06e6	1.22e6	inactive
15	CG9269	DRSC16465	1.62e5	1.31e5	2.25e6	1.24e6	inactive
16	CG13599	DRSC14602	1.55e5	1.82e5	2.12e6	1.72e6	inactive
17	hay (haywire)	DRSC11354	1.13e6	7.96e5	7.73e5	1.03e6	inactive
18	CG17777	DRSC18137	2.42e5	3.13e5	3.04e6	3.45e6	inactive
19	CR33929 (pseudo)	DRSC37858	4.49e5	3.92e5	1.44e6	1.73e6	inactive
20	ball (ballchen)	DRSC14145	74717	85339	1.71e6	1.96e6	active
21	ball (ballchen)	DRSC26607	2.53e5	2.90e5	7.39e5	6.46e5	inactive
22	Rab2	DRSC05017	6.27e5	9.96e5	1.67e6	2.12e6	inactive
23	Rab2	DRSC26810	3.38e5	2.87e5	6.67e5	4.20e5	inactive
24	lncRNA:noe (long non-coding RNA:noe)	DRSC22747	4.26e5	6.70e5	9.30e5	1.01e6	inactive
25	lncRNA:noe (long non-coding RNA:noe)	DRSC24139	4.10e5	4.37e5	3.77e5	3.21e5	inactive
